Measured values published in doi:10.1101/2021.03.16.435663.
These are yes or no findings as the source states them, for the method shown. Some results given as binding are weak or reduced against the parent protein; the word gives no strength.

Molecular target: T1, Tos4 (S. cerevisiae) (UniProt Q06266)
T1 sequence: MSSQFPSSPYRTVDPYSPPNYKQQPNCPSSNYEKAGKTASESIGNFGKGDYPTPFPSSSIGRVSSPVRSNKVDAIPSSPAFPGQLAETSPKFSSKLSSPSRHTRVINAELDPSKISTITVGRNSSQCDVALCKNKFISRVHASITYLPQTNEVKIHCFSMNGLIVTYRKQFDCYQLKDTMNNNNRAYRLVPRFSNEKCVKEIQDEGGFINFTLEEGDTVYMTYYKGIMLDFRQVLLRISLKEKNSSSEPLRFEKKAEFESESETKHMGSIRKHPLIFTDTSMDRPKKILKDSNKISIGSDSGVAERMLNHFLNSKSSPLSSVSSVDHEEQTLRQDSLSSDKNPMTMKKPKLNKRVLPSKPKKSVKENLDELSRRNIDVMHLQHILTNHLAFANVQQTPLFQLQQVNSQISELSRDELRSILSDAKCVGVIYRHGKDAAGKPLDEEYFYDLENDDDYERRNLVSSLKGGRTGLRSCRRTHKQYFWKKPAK
Assay: two-hybrid

binding: binds
B1: Oca1 (protein, UniProt P50946 1-238)
chain: MTSKVGEYEDVPEDESRLTEENVSVPEEEVEDEDEEEDDDDDHIYINEETESGREKVLVSHAPQERIVPPLNFCPVERYLYRSGQPSPVNFPFLLNLKLKTIIWLSNEEPQDTLLEFCDTHRINLQFAAINPDAGEDDNPWDGLTEHSIINVLQTIVTQENYPLLVCCGMGRHRTGTVIGCLRRIMGWNLASVSEEYRRFTGSRGGRILVELLIEAFDTNLVKIDKNKAPSWLLTALE
